Experimental data: patent US7291641B2, “Derivatives of heterocycles with 5 members, their preparation and their use as medicaments” (Societe de Conseils de Recherches et d'Applications …, priority 1999, dated 2007)
Counter-ions that a name gives are not always drawn. Some results were stated once for a whole list of compounds, not compound by compound. At least one structure is not confirmed: it was looked up by name or label, or the drawing left a doubt.

test system: voltage-dependent sodium channels; type: binding; details: homogenate of rat cortex; [3H] batrachotoxin-A 20-alpha benzoate 5 nM; 1 hour 30 minutes at 25° C.; read-out: IC50 on the bond of tritiated batrachotoxin on the voltage-dependent sodium channels

| Molecule | IC50 |
| --- | --- |
| CC(C)(C)c1cc(-c2csc(CN3CC(O)C3)n2)cc(C(C)(C)C)c1O [Example 410, 1-{[4-(3,5-di-tert-butyl-4-hydroxyphenyl)-1,3-thiazol-2-yl]methyl}azetidin-3-ol hydrochloride] | ≤ 1 µM |
| CC(C)(C)c1cc(-c2csc(CN3CC[C@@H](O)C3)n2)cc(C(C)(C)C)c1O [Example 414, (3R)-1-{[4-(3,5-di-tert-butyl-4-hydroxyphenyl)-1,3-thiazol-2-yl]methyl}pyrrolidin-3-ol hydrochloride] | ≤ 1 µM |
| CC(C)(C)c1cc(-c2csc(CN3CC[C@H](O)C3)n2)cc(C(C)(C)C)c1O [Example 415, (3S)-1-{[4-(3,5-di-tert-butyl-4-hydroxyphenyl)-1,3-thiazol-2-yl]methyl}pyrrolidin-3-ol hydrochloride] | ≤ 1 µM |
| CC(C)(C)c1cc(-c2csc(CN3CCCC3)n2)cc(C(C)(C)C)c1O [Example 416, 2,6-di-tert-butyl-4-[2-(pyrrolidin-1-ylmethyl)-1,3-thiazol-4-yl]phenol hydrochloride] | ≤ 1 µM |
| CCCCNCc1nc(-c2cc(C(C)(C)C)c(O)c(C(C)(C)C)c2)cs1 [Example 417, 2,6-di-tert-butyl-4-{2-[(butylamino)methyl]-1,3-thiazol-4-yl}phenol hydrochloride] | ≤ 1 µM |
| CCN1CCN(Cc2nc(-c3ccc4c(c3)Nc3ccccc3S4)cs2)CC1 [Example 418, 2-{2-[(4-ethylpiperazin-1-yl)methyl]-1,3-thiazol-4-yl}-10H-phenothiazine] | ≤ 1 µM |
| CC(C)(C)c1cc(-c2csc(CNCc3ccccc3)n2)cc(C(C)(C)C)c1O [Example 438, 4-{2-[(benzylamino)methyl]-1,3-thiazol-4-yl}-2,6-di-tert-butylphenol hydrochloride] | ≤ 1 µM |
| CCCCOC(=O)NCCc1nc(-c2ccc(-c3cccc(Cl)c3)cc2)c[nH]1 [Example 443, butyl 2-[4-(3′-chloro-1,1′-biphenyl-4-yl)-1H-imidazol-2-yl]ethylcarbamate] | ≤ 1 µM |
| CCCCOC(=O)NCCc1nc(-c2ccc(-c3cccc(F)c3)cc2)c[nH]1 [Example 444, butyl 2-[4-(3′-fluoro-1,1′-biphenyl-4-yl)-1H-imidazol-2-yl]ethylcarbamate] | ≤ 1 µM |
| CCCCOC(=O)NCCc1nc(-c2ccc(CC(C)C)cc2)c[nH]1 [Example 445, butyl 2-[4-(4-isobutylphenyl)-1H-imidazol-2-yl]ethylcarbamate] | ≤ 1 µM |
| CC(C)Cc1ccc(-c2c[nH]c(CCNC(=O)OCc3ccccc3)n2)cc1 [Example 446, benzyl 2-[4-(4-isobutylphenyl)-1H-imidazol-2-yl]ethylcarbamate] | ≤ 1 µM |
| CCCCOC(=O)NCCc1nc(-c2ccc(-c3ccc(F)c(Cl)c3)cc2)c[nH]1 [Example 447, butyl 2-[4-(3′-chloro-4′-fluoro-1,1′-biphenyl-4-yl)-1H-imidazol-2-yl]ethylcarbamate] | ≤ 1 µM |
| CCCCOC(=O)NCCc1nc(-c2ccc(-c3ccc(Cl)c(Cl)c3)cc2)c[nH]1 [Example 448, butyl 2-[4-(3′,4′-dichloro-1,1′-biphenyl-4-yl)-1H-imidazol-2-yl]ethylcarbamate] | ≤ 1 µM |
| CCCCOC(=O)NCCc1nc(-c2ccc(CCC)cc2)c[nH]1 [Example 449, butyl 2-[4-(4-propylphenyl)-1H-imidazol-2-yl]ethylcarbamate] | ≤ 1 µM |
| CCCCOC(=O)NCCc1nc(-c2ccc(CC)cc2)c[nH]1 [Example 450, butyl 2-[4-(4-ethylphenyl)-1H-imidazol-2-yl]ethylcarbamate] | ≤ 1 µM |
| CCCCOC(=O)NCCc1nc(-c2ccc(-c3ccc(C#N)cc3)cc2)c[nH]1 [Example 451, butyl 2-[4-(4′-cyano-1,1′-biphenyl-4-yl)-1H-imidazol-2-yl]ethylcarbamate] | ≤ 1 µM |

| Molecule | IC50 |
| --- | --- |
| CCCCOC(=O)NCCc1nc(-c2ccc(-c3ccc(C(F)(F)F)cc3)cc2)c[nH]1 [Example 452, butyl 2-{4-[41-(trifluoromethyl)-1,1′-biphenyl-4-yl]-1H-imidazol-2-yl}ethylcarbamate] | ≤ 1 µM |
| CCCCOC(=O)NCCc1nc(-c2ccc(-c3ccccc3)cc2)c(CC)[nH]1 [Example 453, butyl 2-[4-(1,1′-biphenyl-4-yl)-5-ethyl-1H-imidazol-2-yl]ethylcarbamate] | ≤ 1 µM |
| CCCCOC(=O)NCCc1nc(-c2ccc(-c3ccccc3Cl)cc2)c[nH]1 [Example 454, butyl 2-[4-(2′-chloro-1,1′-biphenyl-4-yl)-1H-imidazol-2-yl]ethylcarbamate] | ≤ 1 µM |
| CCCCOC(=O)NCCc1nc(-c2ccc(-c3cccc(F)c3F)cc2)c[nH]1 [Example 455, butyl 2-[4-(2′,3′-difluoro-1,1′-biphenyl-4-yl)-1H-imidazol-2-yl]ethylcarbamate] | ≤ 1 µM |
| CCCCOC(=O)NCCc1nc(-c2ccc(-c3ccccc3Br)cc2)c[nH]1 [Example 456, butyl 2-[4-(2′-bromo-1,1′-biphenyl-4-yl)-1H-imidazol-2-yl]ethylcarbamate] | ≤ 1 µM |
| CCCCOC(=O)NCCc1nc(-c2ccc(-c3cc(F)cc(F)c3)cc2)c[nH]1 [Example 457, butyl 2-[4-(3′,5′-difluoro-1,1′-biphenyl-4-yl)-1H-imidazol-2-yl]ethylcarbamate] | ≤ 1 µM |
| CCCCOC(=O)NCCc1nc(-c2ccc(-c3ccccc3OC)cc2)c[nH]1 [Example 458, butyl 2-[4-(2′-methoxy-1,1′-biphenyl-4-yl)-1H-imidazol-2-yl]ethylcarbamate] | ≤ 1 µM |
| CCCCOC(=O)NCCc1nc(-c2ccc(-c3cccc([N+](=O)[O-])c3)cc2)c[nH]1 [Example 459, butyl 2-[4-(3′-nitro-1,1′-biphenyl-4-yl)-1H-imidazol-2-yl]ethylcarbamate] | ≤ 1 µM |
| CCCCOC(=O)NCCc1nc(-c2ccc(-c3cc(F)ccc3F)cc2)c[nH]1 [Example 460, butyl 2-[4-(2′,5′-difluoro-1,1′-biphenyl-4-yl)-1H-imidazol-2-yl]ethylcarbamate] | ≤ 1 µM |
| CCCCOC(=O)NCCc1nc(-c2ccc(-c3cccc(OC)c3)cc2)c[nH]1 [Example 461, butyl 2-[4-(3′-methoxy-1,1′-biphenyl-4-yl)-1H-imidazol-2-yl]ethylcarbamate] | ≤ 1 µM |
| CCCCOC(=O)NCCc1nc(-c2ccc(N)cc2)c[nH]1 [Example 469, butyl 2-[4-(4-aminophenyl)-1H-imidazol-2-yl]ethylcarbamate] | ≤ 1 µM |
| CN[C@@H](C)c1nc(-c2cc(C(C)(C)C)c(O)c(C(C)(C)C)c2)cs1 [Example 476, hydrochloride salt of 2,6-di-tert-butyl-4-{2-[(1S)-1-(methylamino)ethyl]-1,3-thiazol-4-yl}phenol] | ≤ 1 µM |
| CN[C@H](C)c1nc(-c2cc(C(C)(C)C)c(O)c(C(C)(C)C)c2)cs1 [Example 477, 2,6-di-tert-butyl-4-{2-[(1R)-1-(methylamino)ethyl]-1,3-thiazol-4-yl}phenol] | ≤ 1 µM |
| CNCc1nc(-c2cc(C(C)(C)C)cc(C(C)(C)C)c2)cs1 [Example 478, hydrochloride salt of N-{[4-(3,5-di-tert-butylphenyl)-1,3-thiazol-2-yl]methyl}-N-methylamine] | ≤ 1 µM |
| butyl 2-[4-(2′,4′-difluoro-1,1′-biphenyl-4-yl)-1H-imidazol-2-yl]ethylcarbamate [Example 398] | ≤ 1 µM |
